In this test the test system is P388 leukemia ip, CD2F1 mice, survival T/C. Kind of test: NCI In Vivo Anticancer Drug Screen. Data for tumor model P388 Leukemia (intraperitoneal) in CD2F1 (CDF1) mice. As to conditions: T/C endpoint: median survival time, higher T/C = longer survival.
Where [1] appears, read: dose: 0.31 mg/kg/injection, schedule: Q01DX009 (ip), vehicle: saline + alcohol.
Where [2] appears, read: dose: 0.62 mg/kg/injection, schedule: Q01DX009 (ip), vehicle: saline + alcohol.

The list is a part of this screen's results and no random one: it covers a few groups of compounds. Other doses and runs of a compound may be missing. T/C is the treated group as % of the vehicle group. Where survival is the endpoint, the PubChem record calls one and a half times the control and up active, and a quarter to a half above the control has no call in these data; cut-offs in other NCI protocols can differ. Schedule codes are those of the source, taken here to give the interval after Q, in days (D) or hours (H), and the number of doses after X. Some entries show no survivor count and are marked so; the dose need not have been tolerated. Some entries hold several experiments; the results are listed from low to high.

Six molecules from PubChem BioAssay AID330 (DTP/NCI, 2004) can be followed below.

Consider `CC1=C[C@H]2O[C@@H]3C[C@H]4OC(=O)/C=C\C=C\C5OC(C/C(C)=C\C(=O)OCC2(CC1)[C@]4(C)[C@]31CO1)OC5C` (some centres not stated), for which the T/C is 112 % of control [survivor count not shown] (dose: 0.78 mg/kg/injection, schedule: Q01DX009 (ip), vehicle: saline with Tween-80); 109 % of control [survivor count not shown] (dose: 1.56 mg/kg/injection, schedule: Q01DX009 (ip), vehicle: saline with Tween-80); 115 % of control [survivor count not shown] (dose: 3.13 mg/kg/injection, schedule: Q01DX009 (ip), vehicle: saline with Tween-80); 122 % of control [survivor count not shown] (dose: 6.25 mg/kg/injection, schedule: Q01DX009 (ip), vehicle: saline with Tween-80); 131 % of control [survivor count not shown] (dose: 12.5 mg/kg/injection, schedule: Q01DX009 (ip), vehicle: saline with Tween-80).
Regarding `CC1=CC2OC3CC4OC(=O)/C=C\C=C/C5OC(OC5C)C(O)/C(C)=C\C(=O)OCC2(CC1)C4(C)C31CO1` (configuration not stated), the T/C runs as follows: (dose: 0.15 mg/kg/injection, schedule: Q01DX009 (ip), vehicle: saline + alcohol) 112 % of control [survivor count not shown]; under setting [1], 119 % of control [survivor count not shown]; under setting [2], 125 % of control [survivor count not shown]; (dose: 1.25 mg/kg/injection, schedule: Q01DX009 (ip), vehicle: saline + alcohol) 140 % of control [survivor count not shown]; (dose: 2.5 mg/kg/injection, schedule: Q01DX009 (ip), vehicle: saline + alcohol) 149 % of control [survivor count not shown].
On to `CC1CCOC(=O)/C=C/C=C/C(=O)OC2CC3OC4C5OC5(C)C(O)CC4(COC(=O)C1O)C2(C)C31CO1` (configuration not stated), for which the T/C runs as follows: (dose: 0.16 mg/kg/injection, schedule: Q01DX009 (ip), vehicle: saline + alcohol) 157 % of control [survivor count not shown]; under setting [1], 160 % of control [survivor count not shown]; under setting [2], 166 % of control [survivor count not shown]; (dose: 1.25 mg/kg/injection, schedule: Q01DX009 (ip), vehicle: saline + alcohol, evaluated on day 35) 201 % of control [survivor count not shown]; (dose: 1.25 mg/kg/injection, schedule: Q01DX009 (ip), vehicle: saline + alcohol, evaluated on day 45) 150 % of control [survivor count not shown]; (dose: 2.5 mg/kg/injection, schedule: Q01DX009 (ip), vehicle: saline + alcohol, evaluated on day 35) 192 % of control [survivor count not shown]. Also, the T/C (dose: 2.5 mg/kg/injection, schedule: Q01DX009 (ip), vehicle: saline + alcohol, evaluated on day 45) was 175 % of control [survivor count not shown]; the T/C (dose: 5.0 mg/kg/injection, schedule: Q01DX009 (ip), vehicle: saline + alcohol, evaluated on day 35) was 238 % of control [survivor count not shown]; the T/C (dose: 5.0 mg/kg/injection, schedule: Q01DX009 (ip), vehicle: saline + alcohol, evaluated on day 45) was 222 % of control [survivor count not shown]; the T/C (dose: 10.0 mg/kg/injection, schedule: Q01DX009 (ip), vehicle: saline + alcohol, evaluated on day 35) is 284 % of control [survivor count not shown]; the T/C (dose: 10.0 mg/kg/injection, schedule: Q01DX009 (ip), vehicle: saline + alcohol, evaluated on day 45) is 203 % of control [survivor count not shown]; the T/C (dose: 20.0 mg/kg/injection, schedule: Q01DX009 (ip), vehicle: saline + alcohol) was 321 % of control [survivor count not shown].
As to `CC(=O)OCC12CCC(C)=CC1OC1C(N(C)C)C(O)C2(C)C12CO2` (configuration not stated), the T/C (dose: 0.5 mg/kg/injection, schedule: Q04DX002 (ip), vehicle: water) was 125 % of control [survivor count not shown]; the T/C (dose: 1.0 mg/kg/injection, schedule: Q04DX002 (ip), vehicle: water) was 134 % of control [survivor count not shown]; the T/C (dose: 2.0 mg/kg/injection, schedule: Q04DX002 (ip), vehicle: water) is 122 [survivor count not shown] and 136 % of control [survivor count not shown]; the T/C (dose: 4.0 mg/kg/injection, schedule: Q04DX002 (ip), vehicle: water) is 122 [survivor count not shown] and 144 % of control [survivor count not shown].
As for `CC(=O)OCC12CCC(C)=CC1OC1C(OC3CCCCO3)C(OC(C)=O)C2(C)C12CO2` (configuration not stated), the T/C reads like this: (dose: 0.2 mg/kg/injection, schedule: Q01DX009 (ip), vehicle: other) 100 % of control [survivor count not shown]; (dose: 0.4 mg/kg/injection, schedule: Q01DX009 (ip), vehicle: other) 102 % of control [survivor count not shown]; (dose: 0.8 mg/kg/injection, schedule: Q01DX009 (ip), vehicle: other) 102 % of control [survivor count not shown]; (dose: 1.6 mg/kg/injection, schedule: Q01DX009 (ip), vehicle: other) 101 % of control [survivor count not shown]; (dose: 3.2 mg/kg/injection, schedule: Q01DX009 (ip), vehicle: other) 117 % of control [survivor count not shown].
For the molecule `CC1=C[C@H]2O[C@@H]3[C@H](O)[C@@H](O)[C@](C)([C@@]2(CO)CC1)[C@@]31CO1`, the T/C (dose: 0.5 mg/kg/injection, schedule: Q01DX009 (ip), vehicle: saline) is 116 [survivor count not shown], 125 [survivor count not shown], 130 % of control [survivor count not shown]; the T/C (dose: 1.0 mg/kg/injection, schedule: Q01DX009 (ip), vehicle: saline) is 125 [survivor count not shown], 137 [survivor count not shown], 142 % of control [survivor count not shown]; the T/C (dose: 2.0 mg/kg/injection, schedule: Q01DX009 (ip), vehicle: saline) is 134 [survivor count not shown], 135 [survivor count not shown], 148 % of control [survivor count not shown]; the T/C (dose: 4.0 mg/kg/injection, schedule: Q01DX009 (ip), vehicle: saline) is 127 [survivor count not shown], 136 [survivor count not shown], 138 % of control [survivor count not shown]; the T/C (dose: 8.0 mg/kg/injection, schedule: Q01DX009 (ip), vehicle: saline) was 163 % of control [survivor count not shown]; the T/C (dose: 16.0 mg/kg/injection, schedule: Q01DX009 (ip), vehicle: saline) is 92 % of control [survivor count not shown].
